At least one structure is not confirmed: it was looked up by name or label, or the drawing left a doubt.
Tested on: α2 - adrenergic receptor
Assay: α2 - adrenergic receptor affinity (3H rauwolscine displacement, rat cortices)
Format: binding
Conditions: ARL=100 CD/CX relative to phentolamine, 25° C., 45 minutes
Method: 10 cortices removed from the brains of male rats weighing on the average […] were homogenized in 90 ml of 0.32 M sucrose and after centrifuging the homogenized mixture at 1,000 g for 10 minutes at 0° C., the supernatant was centrifuged at 30,000 g for 10 minutes at 0° C. to +4° C. The residue was suspended in 240 ml of Tris HCl 50 mM buffer, pH 7.7 and centrifuged at 30,000 g for 15 minutes at 0° to +4° C. The new residue obtained was suspended in 480 ml of NaKPO4 50 mM buffer, pH 7.4. Then, 2 ml of suspension were incubated for 45 minutes at 25° C. in the presence of ^3 H rauwolscine at a concentration of […]:
(ii) with increasing concentrations of the product under test, or
(iii) to determine the non-specific fixation, with non-radioactive phentolamine at a concentration of 10^-5 M.
The incubated suspensions were filtered on Whatman GF/C and the filters were washed three times with 5 ml of NaKPO4 buffer, pH 7.4, at 0° C. The radio-activity of the filters was measured by liquid scintillation. The affinity of the product under test for the α2 - adrenergic receptors were given relative to phentolamine as reference product. CD=concentration of phentolamine inhibiting 50% of the specific fixation of ^3 H rauwolscine:
CX=concentration of the product under test inhibiting 50% of the specific fixation of ^3 H rauwolscine.

CC(C)(C)NCC(O)COc1ccccc1/C=C/c1cccc2[nH]ccc12 (stereo not shown) [Example 2, 1-[(1,1-dimethylethyl)-amino]-3-[2-[2-(1H-indol-4-yl)-ethenyl]-phenoxy]-2-propanol]
ARL (relative affinity): 0.25%

From patent US4650811A, “Ethenylphenol-indoles having antiarythmic utility” (Roussel Uclaf, priority 1984, dated 1987)
